# Measured values reported in article PMC12591107.
# Protein sequences, listed by entry. Tags and fused reporters are not part of them. Lines headed by an entry give the natural chain unless they say otherwise; changes in a name come on top.
# UniProt P63158: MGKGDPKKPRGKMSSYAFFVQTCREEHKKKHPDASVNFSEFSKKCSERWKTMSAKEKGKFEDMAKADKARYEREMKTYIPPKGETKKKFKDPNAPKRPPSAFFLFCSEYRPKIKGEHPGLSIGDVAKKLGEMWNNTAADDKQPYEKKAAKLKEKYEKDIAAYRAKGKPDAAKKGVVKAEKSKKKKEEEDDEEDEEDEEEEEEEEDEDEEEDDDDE
# UniProt Q6P5F9: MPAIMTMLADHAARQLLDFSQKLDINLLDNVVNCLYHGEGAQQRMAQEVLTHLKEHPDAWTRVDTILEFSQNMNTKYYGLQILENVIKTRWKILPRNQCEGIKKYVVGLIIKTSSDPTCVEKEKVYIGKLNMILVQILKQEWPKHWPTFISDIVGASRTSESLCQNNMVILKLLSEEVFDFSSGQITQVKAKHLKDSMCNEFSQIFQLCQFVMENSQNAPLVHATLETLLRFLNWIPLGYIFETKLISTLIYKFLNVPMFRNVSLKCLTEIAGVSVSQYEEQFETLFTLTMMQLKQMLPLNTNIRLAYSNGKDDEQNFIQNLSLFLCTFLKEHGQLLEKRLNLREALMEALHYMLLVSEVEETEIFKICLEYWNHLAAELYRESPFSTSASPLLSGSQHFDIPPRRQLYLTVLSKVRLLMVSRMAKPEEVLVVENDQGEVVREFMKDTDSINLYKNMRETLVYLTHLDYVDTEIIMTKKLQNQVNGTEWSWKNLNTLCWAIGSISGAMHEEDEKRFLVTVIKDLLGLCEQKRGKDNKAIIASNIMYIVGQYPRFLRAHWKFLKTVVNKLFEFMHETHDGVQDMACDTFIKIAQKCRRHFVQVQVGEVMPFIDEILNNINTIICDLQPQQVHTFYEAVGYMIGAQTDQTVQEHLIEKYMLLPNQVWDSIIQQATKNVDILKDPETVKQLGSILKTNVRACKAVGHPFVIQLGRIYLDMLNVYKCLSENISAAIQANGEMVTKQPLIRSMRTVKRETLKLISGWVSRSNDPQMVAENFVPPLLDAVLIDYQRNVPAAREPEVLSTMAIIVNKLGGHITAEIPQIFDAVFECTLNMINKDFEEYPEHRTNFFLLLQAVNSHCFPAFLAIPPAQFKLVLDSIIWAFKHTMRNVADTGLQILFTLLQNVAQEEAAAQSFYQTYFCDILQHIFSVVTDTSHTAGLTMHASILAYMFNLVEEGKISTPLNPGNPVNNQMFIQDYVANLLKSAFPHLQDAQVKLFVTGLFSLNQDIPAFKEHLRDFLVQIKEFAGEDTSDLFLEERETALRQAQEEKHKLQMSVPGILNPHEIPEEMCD
# Results are given in words; binding and its absence hold for the method and conditions named. For some assays here: In cells and extracts the contact can be indirect. Some entries that bind do so weakly or less than the wild type. For some assays here: Where a sequence is shown, tags or fusion partners need not be part of it.
# T1: HIS-TIAR (mouse) (UniProt P70318)
# T1 sequence: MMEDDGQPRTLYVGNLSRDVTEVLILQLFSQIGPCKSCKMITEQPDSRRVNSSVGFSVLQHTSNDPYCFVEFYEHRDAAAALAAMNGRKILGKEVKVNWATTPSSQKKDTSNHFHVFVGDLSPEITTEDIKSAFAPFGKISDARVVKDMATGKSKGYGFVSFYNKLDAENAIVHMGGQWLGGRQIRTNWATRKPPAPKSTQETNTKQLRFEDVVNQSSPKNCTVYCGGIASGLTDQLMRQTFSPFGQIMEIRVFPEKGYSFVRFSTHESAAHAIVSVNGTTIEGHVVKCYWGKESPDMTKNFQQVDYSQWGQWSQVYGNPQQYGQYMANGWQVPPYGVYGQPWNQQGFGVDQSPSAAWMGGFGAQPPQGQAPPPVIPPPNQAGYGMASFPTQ
# T2: HA-tagged WT TIAR (TIAR-WT-HA) (mouse) (UniProt P70318)
# T2 sequence: T1 sequence
# B1: T-cell intracellular antigen-related protein (TIAR), endogenous (protein, UniProt P70318 1-392)
# chain: T1 sequence
# B2: FLAG-tagged WT TIAR (TIAR-WT-FLAG) (protein, UniProt P70318 1-392)
# chain: T1 sequence
# B3: TIAR-MT-FLAG 361–376aa deletion (protein, UniProt P70318)
# chain: MMEDDGQPRTLYVGNLSRDVTEVLILQLFSQIGPCKSCKMITEQPDSRRVNSSVGFSVLQHTSNDPYCFVEFYEHRDAAAALAAMNGRKILGKEVKVNWATTPSSQKKDTSNHFHVFVGDLSPEITTEDIKSAFAPFGKISDARVVKDMATGKSKGYGFVSFYNKLDAENAIVHMGGQWLGGRQIRTNWATRKPPAPKSTQETNTKQLRFEDVVNQSSPKNCTVYCGGIASGLTDQLMRQTFSPFGQIMEIRVFPEKGYSFVRFSTHESAAHAIVSVNGTTIEGHVVKCYWGKESPDMTKNFQQVDYSQWGQWSQVYGNPQQYGQYMANGWQVPPYGVYGQPWNQQGFGVDQSPSAAWMGPPPNQAGYGMASFPTQ
# What was measured:
# HIS-TIAR (mouse) = target: T1, HIS-TIAR (mouse); experiment: co-IP; in vitro: 500 µL of each purified protein mixed, room temperature for 12 h, immunoprecipitation with an anti-HIS antibody; both purified
# [1] = target: T2, HA-tagged WT TIAR (TIAR-WT-HA) (mouse); experiment: co-IP; NIH/3T3 with knock-down of endogenous HMGB1 and TIAR, co-transfected with TIAR-WT-HA and MYC-tagged HMGB1 constructs, hypoxia (1% O2) 2 h; IP with HA antibody
# [2] = target: High-mobility group box 1 (HMGB1), endogenous (mouse (endogenous in NIH/3T3 and in mouse granulosa cells)) (UniProt P63158); experiment: co-IP; HMGB1 and CRM1 under normoxic and hypoxic conditions (Figure S18A,B); details not shown
# [3] = target: High-mobility group box 1 (HMGB1), endogenous (mouse (endogenous in NIH/3T3 and in mouse granulosa cells)) (UniProt P63158); experiment: co-IP; granulosa cells collected from mice injected with saline, FSH or FSH + C646; endogenous proteins
# HMGB1-K172R-MYC (mouse) = HMGB1-K172R-MYC (mouse) (UniProt P63158); experiment: co-IP; NIH/3T3 transfected with MYC-tagged HMGB1 (WT, K172R or K177R), normoxia or hypoxia (1% O2) 2 h; whole lysate and nuclear/cytoplasmic fractions; interaction between MYC and endogenous TIAR
# HMGB1-K177R-MYC (mouse) = HMGB1-K177R-MYC (mouse) (UniProt P63158); experiment: as above
# [4] = target: MYC-tagged WT HMGB1 (HMGB1-MYC-WT) (mouse) (UniProt P63158); experiment: as above
# [5] = target: High-mobility group box 1 (HMGB1), endogenous (mouse (endogenous in NIH/3T3 and in mouse granulosa cells)) (UniProt P63158); experiment: co-IP; endogenous proteins of NIH/3T3 cells, whole-cell lysates or nuclear/cytoplasmic fractions; normoxia (21% O2) or hypoxia (1% O2) for 2 h; also after LDHA/LDHB siRNA, sodium lactate, C646, Leptomycin B, sodium arsenite or heat shock; IP overnight at 4 °C, Protein A/G magnetic beads
# [6] = target: MYC-tagged WT HMGB1 (HMGB1-MYC-WT) (mouse) (UniProt P63158); experiment: co-IP; NIH/3T3 with knock-down of endogenous HMGB1 and TIAR, co-transfected with HMGB1-WT-MYC and FLAG-tagged TIAR constructs, hypoxia (1% O2) 2 h; IP with MYC antibody
molecule,measurement,setting,value
GST-HMGB1 (from UniProt P63158 1-215),binding,HIS-TIAR (mouse),binds
HMGB1-MYC 52–139aa (from UniProt P63158 52-139) (domain or fragment),binding,[1],no binding
CRM1 (also known as Exportin-1) (from UniProt Q6P5F9 1-1071),binding,[2],binds
HMGB1-MYC 140–215aa (from UniProt P63158 140-215) (domain or fragment),binding,[1],binds
B1,binding,[3],binds
same,binding,HMGB1-K172R-MYC (mouse),binds
same,binding,HMGB1-K177R-MYC (mouse),binds
same,binding,[4],binds
same,binding,[5],binds
B2,binding,[6],binds
B3,binding,[6],binds
